Experimental data from patent US20220025008A1 (FAPON BIOTECH, published 2022).
Results are given in words; binding and its absence hold for the method and conditions named. Some binding calls cover weakened binding; strength is not graded here.

Chains of the proteins cited; added tags and fusions are not shown. Residues count along the entry.
UniProt P16860, residues 27-102: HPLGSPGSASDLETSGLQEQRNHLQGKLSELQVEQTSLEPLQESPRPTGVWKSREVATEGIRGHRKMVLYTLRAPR

Molecular target: Recombinant NT antigen (N-terminal pro-brain natriuretic peptide, NT-proBNP) (human) (UniProt P16860)
Assay: indirect ELISA on coated recombinant NT antigen

B1: Mutation 1 (antibody, V domains shown)
VH: QVRLQESGPSQVKPAQTLSLTCAISGFSITTYYIDWVRHTPGKPPEWLAQMTKDGNAVHQPTIRSRLSITRDTSKSQVFLKLTGVTTEDTAVYYCVRGIIDWGPGLLVTVSS
VL: QAVLTQPSSVSRSLGQTVSITCSGSSDQVGFGDYVNWFQLIPGSAPKTLIFGATSRIRGVPDRFSGSRSGNTATLTINSLQAEDEADYYCGSPNSRGGYVFGSGTRLTVLS
notes: also called mutant 1 antibody
binding: binds
